This assay is described as follows: qHTS Assay to Find Inhibitors of Chronic Active B-Cell Receptor Signaling. Conditions: ABC-DLBCL IkBa-CBG/CBR reporter, luminescence ratio (green luciferase fused to IkBa over red control in TMD8 lymphoma cells), 4 h. The method, boiled down:
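Concentration-response series (up to 46 uM) were applied to TMD8 dual-reporter cells for 4 h at 37C with doxycycline. Green/red ratio, after filter-overlap correction, defined %Activity; red signal alone was normalised to basal cells and zero luminescence.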
For orientation: qHTS replaces the single test concentration by a dilution series.

The mark [1] stands for this setting: measured here: CBR red luminescence, cell number.
Setting [2] is: measured here: IkBa-CBG green luminescence.

SMILES strings stand for the structures. The list shows a part of the results. These are further read-outs of the screen, such as a control signal, another cell line or another target. No call is given for them. Most of these compounds were active or inconclusive in the main read-out, so they are no random draw. The note in brackets gives the kind of curve behind each potency; many fits are weak.

What is called AC50 is the concentration at which the activity in the assay is half-maximal. For the molecule `Cc1nc(-c2ccccc2)sc1C(=O)/C=C/N(C)C`, under setting [1], the AC50 is 28.2 µM [falling, single point]. On the same count and under the same terms, the same measure for `O=C(Cc1ccc(Cl)cc1)Nc1ccccc1N1CCN(C(=O)c2ccccc2)CC1`: 35.5 µM [falling, single point]. In the case of `CC1C(c2ccccc2)N(C)C(c2ccccc2)C(C)C1(O)C#Cc1ccccc1` (stereo not given), the AC50 under setting [1] was 11.6 µM [rising, partial curve]. Take `CC(Cc1cccs1)NC(=S)Nc1ccc(Cl)c(Cl)c1` (stereo not given): the AC50 under setting [1] is 29.1 µM [falling, single point]. With `CCCOC(=O)C(C)n1c(-c2ccccc2)nc2ccccc2c1=O` (stereo not given), under setting [1], the AC50 is 22.4 µM [rising, single point]. Consider `NC(=O)COC(=O)c1cccc(S(=O)(=O)N2CCN(c3ccc(F)cc3)CC2)c1`, for which the AC50 under setting [1] was 1.12 µM [falling, partial curve, poor fit]. For `COCCNC(=S)N(CCc1c(C)[nH]c2ccc(F)cc12)Cc1cccs1`, the AC50 under setting [1] is 35.5 µM [falling, single point] and the AC50 under setting [2] was 35.5 µM [rising, partial curve, poor fit]. For `Cc1ccc(NC(=O)c2cnc(SCC(=O)N3CCCc4ccccc43)n(C)c2=O)cc1`, under setting [1], the AC50 was 0.562 µM [falling, full curve]. For the molecule `COC(=O)C1Cc2ccccc2CN1C(=O)CCl` (stereo not given), the AC50 under setting [1] is 17.8 µM [falling, single point]. As for `CCOC(=O)c1ccc(NC(=S)N2CCCC2c2ccc(OC)c(OC)c2)cc1` (stereo not given), the AC50 under setting [1] is 1.58 µM [rising, partial curve]. In the case of `COCCNC(=O)c1ccc2c(c1)ncn2-c1ccc(C)c(Cl)c1`, the AC50 under setting [1] is 3.98 µM [rising, partial curve, poor fit]. On to `Cc1c(OCC(=O)NCC(O)c2ccccc2)ccc2c(-c3ccccc3)cc(=O)oc12` (stereo not given), for which the AC50 under setting [1] is 25.1 µM [falling, single point]. For `CN(Cc1ccccc1)C(=O)c1ccc(NC(=O)C2=CSCCO2)cc1`, the AC50 under setting [1] was 35.5 µM [rising, single point]. On to `Cn1c(CO)nc2cc(N)ccc21`, for which the AC50 under setting [1] was 3.16 µM [rising, partial curve, poor fit].

As to `CCCCc1nc2cc(C(=O)NCc3cn(C)nc3C)ccc2o1`, under setting [1], the AC50 was 5.62 µM [falling, full curve]. With `Cc1ccc(/C=C(\C#N)c2nc3ccccc3[nH]2)s1`, the AC50 under setting [1] is 3.16 µM [falling, full curve]. On to `COc1ccc(C(=O)NCc2cc(C)nc3ccccc23)cc1OC`, for which the AC50 was 35.5 µM [rising, single point] under setting [1] and 22.4 µM [falling, single point] under setting [2]. For `CCCn1c(SCC(=O)c2c[nH]c3ccccc23)nnc1-c1ccncc1`, under setting [1], the AC50 is 13 µM [falling, partial curve].

The values are drawn from PubChem BioAssay AID493014 (National Center for Advancing Translational Sciences (NCATS), 2011).
